Read-outs that look alike come from different tables or passages of the source. Results are given in words; binding and its absence hold for the method and conditions named. For some assays here: Binding seen in cells or lysates may run through a third protein. Some binding calls cover weakened binding; strength is not graded here. For some assays here: Sequences can lack the tags named with a protein. Values belong to the molecule of their own block, whether it stands above or below them.
Assays:
FLAG-SEC12 [1] = target: T1, FLAG-SEC12 (UniProt Q9HCU5); experiment: co-IP
T1 sequence: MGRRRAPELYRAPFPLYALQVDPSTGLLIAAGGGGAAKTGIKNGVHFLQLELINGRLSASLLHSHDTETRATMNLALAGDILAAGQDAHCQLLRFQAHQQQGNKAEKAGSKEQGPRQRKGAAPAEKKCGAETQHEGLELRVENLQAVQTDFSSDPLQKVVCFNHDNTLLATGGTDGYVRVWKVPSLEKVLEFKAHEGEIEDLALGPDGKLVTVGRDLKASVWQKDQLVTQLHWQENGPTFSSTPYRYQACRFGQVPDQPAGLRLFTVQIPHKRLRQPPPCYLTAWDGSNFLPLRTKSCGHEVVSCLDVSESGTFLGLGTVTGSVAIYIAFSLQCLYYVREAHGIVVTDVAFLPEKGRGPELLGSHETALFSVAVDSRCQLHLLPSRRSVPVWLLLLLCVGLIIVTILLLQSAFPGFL

Chains of the proteins cited; added tags and fusions are not shown. Residues count along the entry.
UniProt Q8TDY2: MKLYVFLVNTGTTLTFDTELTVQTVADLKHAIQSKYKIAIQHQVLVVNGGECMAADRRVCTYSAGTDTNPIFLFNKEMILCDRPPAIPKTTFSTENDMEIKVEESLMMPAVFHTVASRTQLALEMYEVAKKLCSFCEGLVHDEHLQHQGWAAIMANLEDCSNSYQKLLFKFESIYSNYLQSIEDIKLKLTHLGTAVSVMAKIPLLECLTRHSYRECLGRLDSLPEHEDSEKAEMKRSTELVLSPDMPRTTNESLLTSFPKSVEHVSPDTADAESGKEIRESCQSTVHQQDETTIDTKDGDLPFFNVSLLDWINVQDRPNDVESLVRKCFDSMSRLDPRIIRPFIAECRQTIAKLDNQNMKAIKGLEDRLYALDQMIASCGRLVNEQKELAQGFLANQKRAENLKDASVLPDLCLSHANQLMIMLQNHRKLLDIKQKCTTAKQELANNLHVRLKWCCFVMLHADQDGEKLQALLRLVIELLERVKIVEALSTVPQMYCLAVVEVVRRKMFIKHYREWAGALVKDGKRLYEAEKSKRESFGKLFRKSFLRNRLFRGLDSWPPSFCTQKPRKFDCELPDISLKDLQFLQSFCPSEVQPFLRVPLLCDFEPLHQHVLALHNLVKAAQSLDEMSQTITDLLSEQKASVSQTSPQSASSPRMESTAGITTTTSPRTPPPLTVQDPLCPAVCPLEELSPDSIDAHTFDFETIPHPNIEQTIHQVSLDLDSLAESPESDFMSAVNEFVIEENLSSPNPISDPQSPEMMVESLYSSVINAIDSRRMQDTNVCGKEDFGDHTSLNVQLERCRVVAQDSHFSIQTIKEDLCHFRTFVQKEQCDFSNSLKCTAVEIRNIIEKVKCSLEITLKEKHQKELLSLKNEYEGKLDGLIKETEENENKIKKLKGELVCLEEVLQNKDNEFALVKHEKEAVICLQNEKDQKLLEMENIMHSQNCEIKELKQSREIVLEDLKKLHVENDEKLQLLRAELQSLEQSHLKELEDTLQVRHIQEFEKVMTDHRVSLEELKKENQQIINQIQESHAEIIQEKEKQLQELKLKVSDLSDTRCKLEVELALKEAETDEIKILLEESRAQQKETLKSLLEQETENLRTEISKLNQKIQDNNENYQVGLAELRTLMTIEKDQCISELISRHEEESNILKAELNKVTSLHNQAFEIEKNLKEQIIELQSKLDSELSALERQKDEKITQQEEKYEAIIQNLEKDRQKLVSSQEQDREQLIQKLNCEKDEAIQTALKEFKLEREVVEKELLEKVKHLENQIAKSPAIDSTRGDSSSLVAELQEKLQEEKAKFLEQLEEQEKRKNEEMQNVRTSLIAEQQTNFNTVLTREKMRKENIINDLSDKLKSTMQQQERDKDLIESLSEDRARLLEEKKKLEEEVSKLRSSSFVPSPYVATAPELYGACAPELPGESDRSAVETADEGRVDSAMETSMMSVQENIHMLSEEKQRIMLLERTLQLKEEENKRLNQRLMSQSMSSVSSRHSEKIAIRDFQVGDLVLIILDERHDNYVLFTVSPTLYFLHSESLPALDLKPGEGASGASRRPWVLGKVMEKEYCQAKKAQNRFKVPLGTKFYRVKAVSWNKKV
UniProt Q14457: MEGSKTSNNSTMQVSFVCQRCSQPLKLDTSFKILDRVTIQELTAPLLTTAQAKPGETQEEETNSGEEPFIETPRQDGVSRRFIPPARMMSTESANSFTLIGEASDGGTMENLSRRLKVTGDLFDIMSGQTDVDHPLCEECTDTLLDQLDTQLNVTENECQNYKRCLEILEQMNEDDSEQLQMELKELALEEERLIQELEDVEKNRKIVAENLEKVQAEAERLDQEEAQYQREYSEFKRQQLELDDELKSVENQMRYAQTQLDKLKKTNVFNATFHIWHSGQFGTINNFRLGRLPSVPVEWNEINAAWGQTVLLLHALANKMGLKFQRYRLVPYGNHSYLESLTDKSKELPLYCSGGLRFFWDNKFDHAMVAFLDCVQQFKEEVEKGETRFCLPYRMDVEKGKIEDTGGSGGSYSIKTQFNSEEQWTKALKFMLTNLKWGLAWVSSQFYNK
UniProt Q5JRA6, residues 23-1907: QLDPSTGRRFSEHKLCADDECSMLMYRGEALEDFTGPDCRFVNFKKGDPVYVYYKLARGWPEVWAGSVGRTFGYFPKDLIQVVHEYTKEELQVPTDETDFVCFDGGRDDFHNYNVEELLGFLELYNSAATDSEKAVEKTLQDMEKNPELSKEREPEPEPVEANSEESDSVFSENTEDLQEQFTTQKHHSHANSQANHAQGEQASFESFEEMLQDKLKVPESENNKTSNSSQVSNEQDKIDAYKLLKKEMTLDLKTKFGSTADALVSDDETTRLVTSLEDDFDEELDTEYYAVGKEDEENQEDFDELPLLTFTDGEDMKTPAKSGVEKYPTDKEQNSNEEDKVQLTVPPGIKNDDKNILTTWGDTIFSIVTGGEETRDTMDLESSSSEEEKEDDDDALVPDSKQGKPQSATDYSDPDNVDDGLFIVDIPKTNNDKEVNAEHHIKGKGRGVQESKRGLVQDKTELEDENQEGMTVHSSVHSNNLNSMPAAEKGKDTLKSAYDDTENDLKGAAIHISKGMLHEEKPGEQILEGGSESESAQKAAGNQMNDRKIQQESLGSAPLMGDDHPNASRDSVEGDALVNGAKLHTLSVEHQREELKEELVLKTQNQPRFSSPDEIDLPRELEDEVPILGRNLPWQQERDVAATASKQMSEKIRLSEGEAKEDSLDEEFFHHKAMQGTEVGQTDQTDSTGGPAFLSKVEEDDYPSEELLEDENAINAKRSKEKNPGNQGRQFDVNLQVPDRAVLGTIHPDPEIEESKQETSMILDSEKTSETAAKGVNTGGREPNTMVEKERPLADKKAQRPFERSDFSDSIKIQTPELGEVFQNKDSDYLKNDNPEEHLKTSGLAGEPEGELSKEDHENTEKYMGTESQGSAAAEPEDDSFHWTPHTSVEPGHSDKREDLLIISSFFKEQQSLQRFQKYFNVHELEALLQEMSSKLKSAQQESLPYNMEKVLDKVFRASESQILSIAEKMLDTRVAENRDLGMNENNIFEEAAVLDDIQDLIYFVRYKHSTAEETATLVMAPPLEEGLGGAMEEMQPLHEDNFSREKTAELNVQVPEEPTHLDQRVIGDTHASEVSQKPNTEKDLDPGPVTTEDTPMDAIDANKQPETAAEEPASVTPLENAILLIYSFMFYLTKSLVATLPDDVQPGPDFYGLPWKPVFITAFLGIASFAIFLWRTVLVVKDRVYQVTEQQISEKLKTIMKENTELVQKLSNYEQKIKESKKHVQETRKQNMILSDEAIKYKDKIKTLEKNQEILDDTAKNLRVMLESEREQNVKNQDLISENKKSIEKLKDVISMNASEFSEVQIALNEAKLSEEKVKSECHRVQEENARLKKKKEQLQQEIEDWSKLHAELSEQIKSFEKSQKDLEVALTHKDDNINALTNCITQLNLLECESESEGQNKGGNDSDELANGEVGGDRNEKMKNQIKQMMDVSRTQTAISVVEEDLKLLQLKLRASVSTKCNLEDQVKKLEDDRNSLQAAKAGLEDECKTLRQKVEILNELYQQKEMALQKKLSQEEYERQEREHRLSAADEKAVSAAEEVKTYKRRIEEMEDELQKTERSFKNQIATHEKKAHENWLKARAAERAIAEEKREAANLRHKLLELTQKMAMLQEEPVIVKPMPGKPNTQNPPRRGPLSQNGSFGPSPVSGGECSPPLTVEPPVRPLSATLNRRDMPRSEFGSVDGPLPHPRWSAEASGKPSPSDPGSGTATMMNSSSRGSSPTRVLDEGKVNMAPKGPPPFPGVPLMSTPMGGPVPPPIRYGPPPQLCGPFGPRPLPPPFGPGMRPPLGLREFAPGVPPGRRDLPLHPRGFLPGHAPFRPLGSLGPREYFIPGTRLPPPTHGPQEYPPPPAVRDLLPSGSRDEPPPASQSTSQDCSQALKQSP
UniProt Q9NT62: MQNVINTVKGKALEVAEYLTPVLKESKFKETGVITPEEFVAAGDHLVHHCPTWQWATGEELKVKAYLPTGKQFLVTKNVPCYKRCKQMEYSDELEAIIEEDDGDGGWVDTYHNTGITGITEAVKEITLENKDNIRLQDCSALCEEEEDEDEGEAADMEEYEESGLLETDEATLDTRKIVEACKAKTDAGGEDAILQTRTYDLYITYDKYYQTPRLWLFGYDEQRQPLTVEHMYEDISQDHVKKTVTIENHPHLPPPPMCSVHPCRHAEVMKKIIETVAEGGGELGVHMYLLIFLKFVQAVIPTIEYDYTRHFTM

[2] = target: T2, SEC12 (endogenous) (human (endogenous in HeLa)) (UniProt Q9HCU5); experiment: native gel or EMSA
T2 sequence: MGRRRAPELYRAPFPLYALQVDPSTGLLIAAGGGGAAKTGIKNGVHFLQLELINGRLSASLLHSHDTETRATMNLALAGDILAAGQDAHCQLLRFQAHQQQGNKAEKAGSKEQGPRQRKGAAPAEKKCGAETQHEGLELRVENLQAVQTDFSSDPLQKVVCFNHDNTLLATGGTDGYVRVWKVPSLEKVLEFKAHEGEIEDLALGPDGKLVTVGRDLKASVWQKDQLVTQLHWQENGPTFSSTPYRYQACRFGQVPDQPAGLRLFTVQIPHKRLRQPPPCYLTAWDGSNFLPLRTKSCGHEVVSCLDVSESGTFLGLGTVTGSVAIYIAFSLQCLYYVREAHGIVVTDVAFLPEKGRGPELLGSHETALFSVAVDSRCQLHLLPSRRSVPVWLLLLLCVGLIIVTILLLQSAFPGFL

FLAG-FIP200 = FLAG-FIP200 (UniProt Q8TDY2); experiment: co-IP
[3] = target: T2, SEC12 (endogenous) (human (endogenous in HeLa)); experiment: co-IP
FLAG-SEC12 [4] = target: T1, FLAG-SEC12; experiment: co-IP; remark: listed apart in the source
[5] = target: FIP200 (endogenous) (human (endogenous in HEK293T and HeLa)) (UniProt Q8TDY2); experiment: co-IP

binding (FLAG-SEC12 [1]): no binding
Molecule: BECN1 (endogenous) (from UniProt Q14457 1-450)

binding [2]: binds
Molecule: TANGO1 (endogenous) (from UniProt Q5JRA6 23-1907)

Molecule: HA-SEC12 (240-386), C-terminal half of the SEC12 cytoplasmic domain (from UniProt Q9HCU5 240-386) (domain or fragment)
binding (FLAG-FIP200): binds

binding (FLAG-SEC12 [1]): no binding
Molecule: ATG3 (endogenous) (from UniProt Q9NT62 1-314)

binding [3]: binds | binding (FLAG-SEC12 [1]): binds
Molecule: FIP200 (endogenous) (from UniProt Q8TDY2 1-1594)

binding (FLAG-SEC12 [4]): no binding
B1: WIPI2 (endogenous) (protein, UniProt Q9Y4P8 1-454)
chain: MNLASQSGEAGAGQLLFANFNQDNTEVKGASRAAGLGRRAVVWSLAVGSKSGYKFFSLSSVDKLEQIYECTDTEDVCIVERLFSSSLVAIVSLKAPRKLKVCHFKKGTEICNYSYSNTILAVKLNRQRLIVCLEESLYIHNIRDMKVLHTIRETPPNPAGLCALSINNDNCYLAYPGSATIGEVQVFDTINLRAANMIPAHDSPLAALAFDASGTKLATASEKGTVIRVFSIPEGQKLFEFRRGVKRCVSICSLAFSMDGMFLSASSNTETVHIFKLETVKEKPPEEPTTWTGYFGKVLMASTSYLPSQVTEMFNQGRAFATVRLPFCGHKNICSLATIQKIPRLLVGAADGYLYMYNLDPQEGGECALMKQHRLDGSLETTNEILDSASHDCPLVTQTYGAAAGKGTYVPSSPTRLAYTDDLGAVGGACLEDEASALRLDEDSEHPPMILRTD

binding [5]: binds
B2: SEC12 (endogenous) (protein, UniProt Q9HCU5 1-417)
chain: MGRRRAPELYRAPFPLYALQVDPSTGLLIAAGGGGAAKTGIKNGVHFLQLELINGRLSASLLHSHDTETRATMNLALAGDILAAGQDAHCQLLRFQAHQQQGNKAEKAGSKEQGPRQRKGAAPAEKKCGAETQHEGLELRVENLQAVQTDFSSDPLQKVVCFNHDNTLLATGGTDGYVRVWKVPSLEKVLEFKAHEGEIEDLALGPDGKLVTVGRDLKASVWQKDQLVTQLHWQENGPTFSSTPYRYQACRFGQVPDQPAGLRLFTVQIPHKRLRQPPPCYLTAWDGSNFLPLRTKSCGHEVVSCLDVSESGTFLGLGTVTGSVAIYIAFSLQCLYYVREAHGIVVTDVAFLPEKGRGPELLGSHETALFSVAVDSRCQLHLLPSRRSVPVWLLLLLCVGLIIVTILLLQSAFPGFL

From publication doi:10.1101/168518
